Laboratory results: PubChem BioAssay AID504764 (Drosophila RNAi Screening Center, 2011)
The deposit covers about 22,000 reagents; this is an unselected part of those that have a named target and a result. Of all reagents, 403 (1.9%) got an active call. 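Unnormalised raw counts per well; ratio z-scores behind the hit calls and whether each hit raises or lowers signal are not deposited.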 No sequences are given here. The record does not give: the amount of reagent.

Aim: 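Knock-downs that raise or lower a Notch target reporter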 (primary screen)
Cells: Drosophila Kc167 cells
Reagents: long dsRNA against Drosophila genes
Time to read-out: about 5 days (4 days dsRNA, then 24 h after transfection)
Challenge: transfection of constitutively active membrane-tethered Notch lacking the extracellular domain, read 24 h later
Measured: 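Firefly luciferase from an E(spl)m3 reporter with active Notch, plus control-promoter and uninduced reporter wells for normalisation; unnormalised counts, duplicate wells a and b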
Reading the numbers: induced reporter light, run 1, well a and induced reporter light, run 1, well b: higher = more light from the Notch target reporter with active Notch; control promoter light, run 1, well a and control promoter light, run 1, well b: higher = more light from the viral control promoter (cell number, transfection, viability); uninduced reporter light, run 1, well a: higher = more light from the Notch target reporter without active Notch
Call rule: 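Wells with low control signal or poorly matching duplicates excluded; duplicates averaged; per source plate, z beyond ±2 for induced/control log2 ratio or beyond ±1.8 for induced/uninduced marks a hit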
Meaning of the calls: active = modifier hit (raised or lowered Notch signal); inactive = not a hit

For bb8 [DRSC15578], what was measured?
induced reporter light, run 1, well a: 1.63e5; induced reporter light, run 1, well b: 2.03e5; control promoter light, run 1, well a: 2.36e5; control promoter light, run 1, well b: 2.35e5; uninduced reporter light, run 1, well a: 14010; activity call: inactive

With Gnf1 [DRSC12351], how do the results read?
induced reporter light, run 1, well a: 1.24e5; induced reporter light, run 1, well b: 90770; control promoter light, run 1, well a: 90405; control promoter light, run 1, well b: 89145; uninduced reporter light, run 1, well a: 8745; activity call: inactive

Which result is listed for Arl6IP1 [DRSC14231]?
induced reporter light, run 1, well a: 2.66e5; induced reporter light, run 1, well b: 2.49e5; control promoter light, run 1, well a: 2.52e5; control promoter light, run 1, well b: 2.66e5; uninduced reporter light, run 1, well a: 20155; activity call: inactive

For icln [DRSC07630], what was measured?
induced reporter light, run 1, well a: 1.24e5; induced reporter light, run 1, well b: 93940; control promoter light, run 1, well a: 99625; control promoter light, run 1, well b: 1.25e5; uninduced reporter light, run 1, well a: 11255; activity call: inactive

For Eh [DRSC16660], what was measured?
induced reporter light, run 1, well a: 2.16e5; induced reporter light, run 1, well b: 1.80e5; control promoter light, run 1, well a: 1.67e5; control promoter light, run 1, well b: 1.59e5; uninduced reporter light, run 1, well a: 15515; activity call: inactive

For CG45263 [DRSC12682], what was measured?
induced reporter light, run 1, well a: 1.43e5; induced reporter light, run 1, well b: 1.18e5; control promoter light, run 1, well a: 1.13e5; control promoter light, run 1, well b: 1.77e5; uninduced reporter light, run 1, well a: 12955; activity call: inactive

What did the screen give for CG45263 [DRSC14360]?
induced reporter light, run 1, well a: 82200; induced reporter light, run 1, well b: 80205; control promoter light, run 1, well a: 63025; control promoter light, run 1, well b: 54855; uninduced reporter light, run 1, well a: 6245; activity call: inactive

With CG45263 [DRSC14361], how do the results read?
induced reporter light, run 1, well a: 83750; induced reporter light, run 1, well b: 1.02e5; control promoter light, run 1, well a: 92860; control promoter light, run 1, well b: 74115; uninduced reporter light, run 1, well a: 4600; activity call: inactive

Which result is listed for CG45263 [DRSC14363]?
induced reporter light, run 1, well a: 31775; induced reporter light, run 1, well b: 44425; control promoter light, run 1, well a: 27820; control promoter light, run 1, well b: 19778; uninduced reporter light, run 1, well a: 2690; activity call: inactive

For BHD [DRSC11017], what does the deposit list?
induced reporter light, run 1, well a: 1.19e5; induced reporter light, run 1, well b: 1.28e5; control promoter light, run 1, well a: 71660; control promoter light, run 1, well b: 54865; uninduced reporter light, run 1, well a: 8832; activity call: inactive

What is on record for CG11019 (retired record) [DRSC02117]?
induced reporter light, run 1, well a: 35255; induced reporter light, run 1, well b: 19435; control promoter light, run 1, well a: 16800; control promoter light, run 1, well b: 20665; uninduced reporter light, run 1, well a: 2835; activity call: inactive

With Anp [DRSC14112], what does the deposit list?
induced reporter light, run 1, well a: 1.25e5; induced reporter light, run 1, well b: 1.31e5; control promoter light, run 1, well a: 1.61e5; control promoter light, run 1, well b: 1.42e5; uninduced reporter light, run 1, well a: 12000; activity call: inactive

With Cp7Fa [DRSC18032], what was measured?
induced reporter light, run 1, well a: 1.34e5; induced reporter light, run 1, well b: 1.53e5; control promoter light, run 1, well a: 2.23e5; control promoter light, run 1, well b: 3.02e5; uninduced reporter light, run 1, well a: 10645; activity call: inactive

With Cp7Fa [DRSC18033], what does the deposit list?
induced reporter light, run 1, well a: 1.19e5; induced reporter light, run 1, well b: 1.60e5; control promoter light, run 1, well a: 2.75e5; control promoter light, run 1, well b: 2.69e5; uninduced reporter light, run 1, well a: 10880; activity call: inactive

What did the screen give for Sdhaf3 [DRSC15020]?
induced reporter light, run 1, well a: 2.07e5; induced reporter light, run 1, well b: 2.34e5; control promoter light, run 1, well a: 2.44e5; control promoter light, run 1, well b: 2.02e5; uninduced reporter light, run 1, well a: 17780; activity call: inactive

How did the screen score Tmem131 [DRSC07154]?
induced reporter light, run 1, well a: 1.11e5; induced reporter light, run 1, well b: 1.18e5; control promoter light, run 1, well a: 2.17e5; control promoter light, run 1, well b: 2.69e5; uninduced reporter light, run 1, well a: 10510; activity call: inactive

For dsd [DRSC13829], what was measured?
induced reporter light, run 1, well a: 2.68e5; induced reporter light, run 1, well b: 1.74e5; control promoter light, run 1, well a: 1.87e5; control promoter light, run 1, well b: 2.37e5; uninduced reporter light, run 1, well a: 18335; activity call: inactive

For dsd [DRSC15850], how do the results read?
induced reporter light, run 1, well a: 39740; induced reporter light, run 1, well b: 41110; control promoter light, run 1, well a: 43455; control promoter light, run 1, well b: 45835; uninduced reporter light, run 1, well a: 3130; activity call: inactive

Limited to “control promoter light, run 1, well a”, for 3 of the entries above:
Arl6IP1 [DRSC14231]: 2.52e5
icln [DRSC07630]: 99625
Eh [DRSC16660]: 1.67e5
